From US20060281110A1, “Methods to identify antimicrobial compounds that interrupt ribosome biogenesis” (MICHIGAN STATE UNIVERSITY, priority 2005, published 2006)
At least one compound was matched to its structure with a doubt left.

Test system: B. subtilis wild type cells
Assay: Nucleoid morphology by fluorescence/phase contrast microscopy (DAPI)
Assay type: cell-based, Bacillus subtilis
Conditions: tetracycline at levels that inhibited cell growth; FIG. 8C

`CN(C)[C@@H]1C(O)=C(C(N)=O)C(=O)[C@@]2(O)C(O)=C3C(=O)c4c(O)cccc4[C@@](C)(O)[C@H]3C[C@@H]12` [tetracycline] was tested, and the nucleoid phenotype was “nucleoid phenotype similar to YlqF protein-depleted cells”.
